Results reported in the supplement of paper PMC10470496.
Where a name gives a salt, the structure may show the parent alone. The list shows a part of the results. Repeats are few or missing, and single values can be far off.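 The three strains are clinical Candida auris isolates from the CDC resistance isolate bank, from clades III, IV and I, grown in RPMI-1640 at 35°C. Growth is background-corrected OD600 relative to vehicle-only wells on the same plate; a hit meant over 50% inhibition in at least two strains plus a plate-corrected B-score above 0.1.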

Columns and labels:
Test in all cases: growth relative to vehicle control (OD600 ratio) (fraction); higher = less inhibition
Conditions in all cases: 24 h
C. auris AR-384 = system: C. auris AR-384
C. auris AR-386 = system: C. auris AR-386
C. auris AR-387 = system: C. auris AR-387

Compound | growth (C. auris AR-384; 1 µM) | growth (C. auris AR-384; 10 µM) | growth (C. auris AR-386; 1 µM) | growth (C. auris AR-386; 10 µM) | growth (C. auris AR-387; 1 µM) | growth (C. auris AR-387; 10 µM)
NC(N)=Nc1nc(CSCC/C(N)=N/S(N)(=O)=O)cs1 [Famotidine] | 0.92 | 1.11 | 1.2 | 0.96 | 1.01 | 1.13
c1cc(CN2CCCNCCNCCCNCC2)ccc1CN1CCCNCCNCCCNCC1 [Plerixafor 8HCl (AMD3100 8HCl)] | 1.33 | 1.5 | 1.13 | 1.16 | 0.9 | 1.24
Nc1nc(Cl)nc2c1ncn2[C@@H]1O[C@H](CO)[C@@H](O)[C@@H]1F [Clofarabine] | 1.28 | 0.72 | 1.07 | 1.01 | 0.97 | 1.3
O=C1CC2(CCCC2)CC(=O)N1CCCCN1CCN(c2ncccn2)CC1 [Buspirone HCl] | 0.79 | 0.58 | 0.84 | 0.7 | 0.81 | 0.78
COc1nc(C)cnc1NS(=O)(=O)c1cccnc1-c1ccc(-c2nnco2)cc1 [Zibotentan (ZD4054)] | 0.64 | 0.72 | 1.05 | 1.09 | 1.03 | 0.84
C[C@@H]1CN(c2c(F)c(N)c3c(=O)c(C(=O)O)cn(C4CC4)c3c2F)C[C@H](C)N1 [Sparfloxacin] | 0.96 | 0.87 | 1.05 | 1.09 | 1.01 | 0.9
COc1cc(C(=O)NS(=O)(=O)c2ccccc2C)ccc1Cc1cn(C)c2ccc(NC(=O)OC3CCCC3)cc12 [Zafirlukast] | 0.79 | 0.51 | 0.74 | 0.72 | 0.93 | 0.74
Cc1cccc(C)c1NC(=O)C1CCCCN1C (configuration not stated) [Mepivacaine HCl] | 0.72 | 0.84 | 0.86 | 0.64 | 0.78 | 0.93
COc1ccc2cc(CCC(C)=O)ccc2c1 [Nabumetone] | 0.97 | 0.82 | 0.93 | 0.86 | 0.8 | 0.9
COc1cc2nc(N3CCN(C(=O)c4ccco4)CC3)nc(N)c2cc1OC [Prazosin HCl] | 0.89 | 0.64 | 0.7 | 1.04 | 0.77 | 0.77
CCOC(=O)[N-]c1c[n+](N2CCOCC2)no1 [Molsidomine] | 0.71 | 0.83 | 0.9 | 0.48 | 0.88 | 0.78
Cc1c(-c2ccnn2C)cc(C(=O)NCc2ccc(S(C)(=O)=O)cn2)c(=O)n1-c1cccc(C(F)(F)F)c1 [Alvelestat (AZD9668)] | 1.33 | 1.69 | 1.04 | 1.33 | 1.14 | 1.56
O=C1O[C@H]([C@@H](O)CO)C([O-])=C1O.[Na+] [Sodium ascorbate] | 1.02 | 1.08 | 1.03 | 1.18 | 0.93 | 0.96
Cc1c(-c2ccccc2)oc2c(C(=O)OCCN3CCCCC3)cccc2c1=O [Flavoxate HCl] | 0.57 | 0.8 | 0.66 | 0.97 | 0.81 | 0.61
CC[C@@H]1/C=C(\C)C[C@H](C)C[C@H](OC)[C@H]2O[C@@](O)(C(=O)C(=O)N3CCCC[C@H]3C(=O)O[C@H](/C(C)=C/[C@@H]3CC[C@H](Cl)[C@H](OC)C3)[C@H](C)[C@@H](O)CC1=O)[C@H](C)C[C@@H]2OC [Pimecrolimus] | 1.21 | 1.63 | 1.18 | 1.11 | 1.18 | 1.47
NCCCCC(NC(=O)C1CCCN1C(=O)C1CSSCC(N)C(=O)NC(Cc2ccc(O)cc2)C(=O)NC(Cc2ccccc2)C(=O)NC(CCC(N)=O)C(=O)NC(CC(N)=O)C(=O)N1)C(=O)NCC(N)=O (configuration not stated) [Lypressin Acetate] | 0.72 | 0.52 | 0.76 | 1 | 0.81 | 0.57
CCN(CC)CC(=O)Nc1c(C)cccc1C [Lidocaine hydrochloride] | 0.81 | 0.74 | 0.91 | 0.98 | 0.93 | 1.16
O=c1ccn([C@@H]2O[C@H](CO)[C@@H](O)[C@H]2O)c(=O)[nH]1 [Uridine] | 0.96 | 0.89 | 1 | 0.77 | 0.65 | 0.85
CC(=O)[C@H]1CC[C@H]2[C@@H]3CC=C4C[C@@H](O)CC[C@]4(C)[C@H]3CC[C@]12C [Pregnenolone] | 0.68 | 1.1 | 1.34 | 1.09 | 1.03 | 1.01
CCc1nc(N)nc(N)c1-c1ccc(Cl)cc1 [Pyrimethamine] | 0.73 | 0.76 | 0.76 | 0.9 | 0.9 | 0.89
Cn1c(=O)c2nc[nH]c2n(C)c1=O [Theophylline] | 1.1 | 0.74 | 0.95 | 1.17 | 1.13 | 0.93
CN(Cc1cnc2nc(N)nc(N)c2n1)c1ccc(C(=O)N[C@@H](CCC(=O)O)C(=O)O)cc1 [Methotrexate] | 0.87 | 1.29 | 1.4 | 0.99 | 0.89 | 0.88
Cc1cccc(C)c1OCC(C)N (configuration not stated) [Mexiletine HCl] | 1.08 | 0.95 | 0.72 | 1.12 | 0.98 | 1.06
CCC(=O)c1c(O)cc(O)cc1O [Flopropione] | 0.97 | 0.78 | 0.89 | 1.04 | 0.88 | 1.03

Compound | growth (C. auris AR-384; 1 µM) | growth (C. auris AR-384; 10 µM) | growth (C. auris AR-386; 1 µM) | growth (C. auris AR-386; 10 µM) | growth (C. auris AR-387; 1 µM) | growth (C. auris AR-387; 10 µM)
COC(=O)C1=C(C)NC(C)=C(C(=O)OCC(C)C)C1c1ccccc1[N+](=O)[O-] (configuration not stated) [Nisoldipine] | 1.02 | 1.05 | 1.02 | 0.67 | 1.13 | 1.46
CN(Cc1ccc(C(C)(C)C)cc1)Cc1cccc2ccccc12 [Butenafine HCl] | 0.93 | 0.46 | 0.52 | 0.28 | 0.37 | 0.26
CCCCCCCCCCCCCCCCOP(=O)([O-])OCC[N+](C)(C)C [Miltefosine] | 0.71 | 0.13 | 0.98 | 0.03 | 1.12 | 0.63
OCCOc1ccc(/C(=C(/CCCl)c2ccccc2)c2ccccc2)cc1 [Ospemifene] | 0.76 | 0.76 | 0.78 | 0.68 | 0.68 | 0.87
CC1=NN(c2ccc(C)c(C)c2)C(=O)/C1=N\Nc1cccc(-c2cccc(C(=O)O)c2)c1O [Eltrombopag] | 1.35 | 1.38 | 0.94 | 1.45 | 1.04 | 1.37
Cc1ccc(O)c([C@H](CCN(C(C)C)C(C)C)c2ccccc2)c1 [Tolterodine tartrate] | 0.93 | 0.86 | 1.08 | 0.92 | 0.96 | 0.96
CN1CCN(C(c2ccccc2)c2ccccc2)CC1 [Cyclizine 2HCl] | 0.96 | 0.89 | 1.2 | 0.52 | 1.03 | 0.69
Cc1ccc(-n2nc(C(C)(C)C)cc2NC(=O)NCc2cc(F)ccc2Oc2ccc3c(cnn3CCO)c2)cc1 [Pexmetinib (ARRY-614)] | 1.14 | 0.91 | 0.87 | 0.79 | 1.09 | 0.99
CC(=O)OCC(=O)[C@@]12OC(C)(C)O[C@@H]1C[C@H]1[C@@H]3C[C@H](F)C4=CC(=O)C=C[C@]4(C)[C@@]3(F)[C@@H](O)C[C@@]12C [Fluocinonide] | 1.14 | 1.2 | 1.33 | 1.12 | 1.18 | 1.02
O=C1NC(=O)[C@@H](c2cn3c4c(cccc24)CCC3)[C@@H]1c1c[nH]c2ccccc12 [Tivantinib (ARQ 197)] | 0.68 | 1.33 | 0.76 | 0.85 | 0.75 | 0.78
O=C(O)c1cc(/N=N/c2ccc(S(=O)(=O)Nc3ccccn3)cc2)ccc1O [Sulfasalazine] | 0.84 | 1.34 | 1.35 | 1.1 | 1.33 | 1.29
CCc1cc(C(N)=S)ccn1 [Ethionamide] | 1.3 | 0.98 | 0.89 | 0.72 | 0.75 | 0.88
CCN1CCN(c2cc3c(cc2F)c(=O)c(C(=O)O)cn3C2CC2)CC1 [Enrofloxacin] | 1.38 | 1.19 | 1.4 | 1.26 | 1.35 | 1.43
Clc1ccc(COC(Cn2ccnc2)c2ccc(Cl)cc2Cl)c(Cl)c1 (configuration not stated) [Miconazole Nitrate] | 0.63 | 0.24 | 0.6 | 0.59 | 0.04 | 0.02
CC1(C)S[C@@H]2[C@H](NC(=O)[C@H](NC(=O)N3CCNC3=O)c3ccccc3)C(=O)N2[C@H]1C(=O)O [Azlocillin sodium salt] | 0.72 | 0.69 | 0.64 | 0.82 | 0.77 | 0.6
C=CCNC(N)=S [Allylthiourea] | 1.03 | 0.68 | 0.8 | 0.92 | 0.73 | 1.02
CN(CCOc1ccc(CC2SC(=O)NC2=O)cc1)c1ccccn1 (configuration not stated) [Rosiglitazone HCl] | 0.9 | 0.93 | 1.05 | 1.13 | 1.22 | 1.28
COc1cccc2c1C(=O)c1c(O)c3c(c(O)c1C2=O)CC(O)(C(=O)CO)CC3OC1CC(N)C(O)C(C)O1 (configuration not stated) [Doxorubicin (Adriamycin) HCl] | 0.81 | 0.8 | 0.98 | 0.91 | 0.86 | 1.01
CN1CCN(CCCN2c3ccccc3Sc3ccc(Cl)cc32)CC1 [Prochlorperazine dimaleate salt] | 0.91 | 1.06 | 1.01 | 1.09 | 0.99 | 1.41
CO[C@@H]1[C@H](OC(=O)/C=C/C=C/C=C/C=C/C(=O)O)CC[C@]2(CO2)[C@H]1[C@@]1(C)O[C@@H]1CC=C(C)C [Fumagillin] | 0.83 | 0.55 | 0.65 | 0.65 | 0.85 | 0.77
Cc1nc2n(c(=O)c1CCN1CCC(c3noc4cc(F)ccc34)CC1)CCCC2 [Risperidone] | 0.83 | 1.25 | 1.38 | 0.78 | 1 | 0.94
NCCCCCC(=O)O [(6-) ε-Aminocaproic acid] | 0.78 | 1.11 | 1.3 | 0.96 | 1.17 | 1.31
CCCC(C(=O)OCCN(CC)CC)(c1ccccc1)c1ccccc1 [Proadifen HCl] | 0.92 | 0.94 | 1.01 | 0.66 | 0.61 | 0.79

Record cards (already shown). Order of values: growth (C. auris AR-384; 1 µM) | growth (C. auris AR-384; 10 µM) | growth (C. auris AR-386; 1 µM) | growth (C. auris AR-386; 10 µM) | growth (C. auris AR-387; 1 µM) | growth (C. auris AR-387; 10 µM)
`C=CCNC(N)=S` [Allylthiourea] is listed as 1.03 | 0.68 | 0.8 | 0.92 | 0.73 | 1.02
`CC(=O)OCC(=O)[C@@]12OC(C)(C)O[C@@H]1C[C@H]1[C@@H]3C[C@H](F)C4=CC(=O)C=C[C@]4(C)[C@@]3(F)[C@@H](O)C[C@@]12C` [Fluocinonide] is listed as 1.14 | 1.2 | 1.33 | 1.12 | 1.18 | 1.02
`CCc1cc(C(N)=S)ccn1` [Ethionamide] is listed as 1.3 | 0.98 | 0.89 | 0.72 | 0.75 | 0.88
